Source: paper doi:10.1101/2022.12.10.519866 (bioRxiv, 2022)
Results are given in words; binding and its absence hold for the method and conditions named. Binding seen in cells or lysates may run through a third protein. Here binding means that the protein was enriched with, or labelled near, the bait; the list need not be complete.

By UniProt entry, the sequences of proteins in these tests, tags left out.
UniProt O88738: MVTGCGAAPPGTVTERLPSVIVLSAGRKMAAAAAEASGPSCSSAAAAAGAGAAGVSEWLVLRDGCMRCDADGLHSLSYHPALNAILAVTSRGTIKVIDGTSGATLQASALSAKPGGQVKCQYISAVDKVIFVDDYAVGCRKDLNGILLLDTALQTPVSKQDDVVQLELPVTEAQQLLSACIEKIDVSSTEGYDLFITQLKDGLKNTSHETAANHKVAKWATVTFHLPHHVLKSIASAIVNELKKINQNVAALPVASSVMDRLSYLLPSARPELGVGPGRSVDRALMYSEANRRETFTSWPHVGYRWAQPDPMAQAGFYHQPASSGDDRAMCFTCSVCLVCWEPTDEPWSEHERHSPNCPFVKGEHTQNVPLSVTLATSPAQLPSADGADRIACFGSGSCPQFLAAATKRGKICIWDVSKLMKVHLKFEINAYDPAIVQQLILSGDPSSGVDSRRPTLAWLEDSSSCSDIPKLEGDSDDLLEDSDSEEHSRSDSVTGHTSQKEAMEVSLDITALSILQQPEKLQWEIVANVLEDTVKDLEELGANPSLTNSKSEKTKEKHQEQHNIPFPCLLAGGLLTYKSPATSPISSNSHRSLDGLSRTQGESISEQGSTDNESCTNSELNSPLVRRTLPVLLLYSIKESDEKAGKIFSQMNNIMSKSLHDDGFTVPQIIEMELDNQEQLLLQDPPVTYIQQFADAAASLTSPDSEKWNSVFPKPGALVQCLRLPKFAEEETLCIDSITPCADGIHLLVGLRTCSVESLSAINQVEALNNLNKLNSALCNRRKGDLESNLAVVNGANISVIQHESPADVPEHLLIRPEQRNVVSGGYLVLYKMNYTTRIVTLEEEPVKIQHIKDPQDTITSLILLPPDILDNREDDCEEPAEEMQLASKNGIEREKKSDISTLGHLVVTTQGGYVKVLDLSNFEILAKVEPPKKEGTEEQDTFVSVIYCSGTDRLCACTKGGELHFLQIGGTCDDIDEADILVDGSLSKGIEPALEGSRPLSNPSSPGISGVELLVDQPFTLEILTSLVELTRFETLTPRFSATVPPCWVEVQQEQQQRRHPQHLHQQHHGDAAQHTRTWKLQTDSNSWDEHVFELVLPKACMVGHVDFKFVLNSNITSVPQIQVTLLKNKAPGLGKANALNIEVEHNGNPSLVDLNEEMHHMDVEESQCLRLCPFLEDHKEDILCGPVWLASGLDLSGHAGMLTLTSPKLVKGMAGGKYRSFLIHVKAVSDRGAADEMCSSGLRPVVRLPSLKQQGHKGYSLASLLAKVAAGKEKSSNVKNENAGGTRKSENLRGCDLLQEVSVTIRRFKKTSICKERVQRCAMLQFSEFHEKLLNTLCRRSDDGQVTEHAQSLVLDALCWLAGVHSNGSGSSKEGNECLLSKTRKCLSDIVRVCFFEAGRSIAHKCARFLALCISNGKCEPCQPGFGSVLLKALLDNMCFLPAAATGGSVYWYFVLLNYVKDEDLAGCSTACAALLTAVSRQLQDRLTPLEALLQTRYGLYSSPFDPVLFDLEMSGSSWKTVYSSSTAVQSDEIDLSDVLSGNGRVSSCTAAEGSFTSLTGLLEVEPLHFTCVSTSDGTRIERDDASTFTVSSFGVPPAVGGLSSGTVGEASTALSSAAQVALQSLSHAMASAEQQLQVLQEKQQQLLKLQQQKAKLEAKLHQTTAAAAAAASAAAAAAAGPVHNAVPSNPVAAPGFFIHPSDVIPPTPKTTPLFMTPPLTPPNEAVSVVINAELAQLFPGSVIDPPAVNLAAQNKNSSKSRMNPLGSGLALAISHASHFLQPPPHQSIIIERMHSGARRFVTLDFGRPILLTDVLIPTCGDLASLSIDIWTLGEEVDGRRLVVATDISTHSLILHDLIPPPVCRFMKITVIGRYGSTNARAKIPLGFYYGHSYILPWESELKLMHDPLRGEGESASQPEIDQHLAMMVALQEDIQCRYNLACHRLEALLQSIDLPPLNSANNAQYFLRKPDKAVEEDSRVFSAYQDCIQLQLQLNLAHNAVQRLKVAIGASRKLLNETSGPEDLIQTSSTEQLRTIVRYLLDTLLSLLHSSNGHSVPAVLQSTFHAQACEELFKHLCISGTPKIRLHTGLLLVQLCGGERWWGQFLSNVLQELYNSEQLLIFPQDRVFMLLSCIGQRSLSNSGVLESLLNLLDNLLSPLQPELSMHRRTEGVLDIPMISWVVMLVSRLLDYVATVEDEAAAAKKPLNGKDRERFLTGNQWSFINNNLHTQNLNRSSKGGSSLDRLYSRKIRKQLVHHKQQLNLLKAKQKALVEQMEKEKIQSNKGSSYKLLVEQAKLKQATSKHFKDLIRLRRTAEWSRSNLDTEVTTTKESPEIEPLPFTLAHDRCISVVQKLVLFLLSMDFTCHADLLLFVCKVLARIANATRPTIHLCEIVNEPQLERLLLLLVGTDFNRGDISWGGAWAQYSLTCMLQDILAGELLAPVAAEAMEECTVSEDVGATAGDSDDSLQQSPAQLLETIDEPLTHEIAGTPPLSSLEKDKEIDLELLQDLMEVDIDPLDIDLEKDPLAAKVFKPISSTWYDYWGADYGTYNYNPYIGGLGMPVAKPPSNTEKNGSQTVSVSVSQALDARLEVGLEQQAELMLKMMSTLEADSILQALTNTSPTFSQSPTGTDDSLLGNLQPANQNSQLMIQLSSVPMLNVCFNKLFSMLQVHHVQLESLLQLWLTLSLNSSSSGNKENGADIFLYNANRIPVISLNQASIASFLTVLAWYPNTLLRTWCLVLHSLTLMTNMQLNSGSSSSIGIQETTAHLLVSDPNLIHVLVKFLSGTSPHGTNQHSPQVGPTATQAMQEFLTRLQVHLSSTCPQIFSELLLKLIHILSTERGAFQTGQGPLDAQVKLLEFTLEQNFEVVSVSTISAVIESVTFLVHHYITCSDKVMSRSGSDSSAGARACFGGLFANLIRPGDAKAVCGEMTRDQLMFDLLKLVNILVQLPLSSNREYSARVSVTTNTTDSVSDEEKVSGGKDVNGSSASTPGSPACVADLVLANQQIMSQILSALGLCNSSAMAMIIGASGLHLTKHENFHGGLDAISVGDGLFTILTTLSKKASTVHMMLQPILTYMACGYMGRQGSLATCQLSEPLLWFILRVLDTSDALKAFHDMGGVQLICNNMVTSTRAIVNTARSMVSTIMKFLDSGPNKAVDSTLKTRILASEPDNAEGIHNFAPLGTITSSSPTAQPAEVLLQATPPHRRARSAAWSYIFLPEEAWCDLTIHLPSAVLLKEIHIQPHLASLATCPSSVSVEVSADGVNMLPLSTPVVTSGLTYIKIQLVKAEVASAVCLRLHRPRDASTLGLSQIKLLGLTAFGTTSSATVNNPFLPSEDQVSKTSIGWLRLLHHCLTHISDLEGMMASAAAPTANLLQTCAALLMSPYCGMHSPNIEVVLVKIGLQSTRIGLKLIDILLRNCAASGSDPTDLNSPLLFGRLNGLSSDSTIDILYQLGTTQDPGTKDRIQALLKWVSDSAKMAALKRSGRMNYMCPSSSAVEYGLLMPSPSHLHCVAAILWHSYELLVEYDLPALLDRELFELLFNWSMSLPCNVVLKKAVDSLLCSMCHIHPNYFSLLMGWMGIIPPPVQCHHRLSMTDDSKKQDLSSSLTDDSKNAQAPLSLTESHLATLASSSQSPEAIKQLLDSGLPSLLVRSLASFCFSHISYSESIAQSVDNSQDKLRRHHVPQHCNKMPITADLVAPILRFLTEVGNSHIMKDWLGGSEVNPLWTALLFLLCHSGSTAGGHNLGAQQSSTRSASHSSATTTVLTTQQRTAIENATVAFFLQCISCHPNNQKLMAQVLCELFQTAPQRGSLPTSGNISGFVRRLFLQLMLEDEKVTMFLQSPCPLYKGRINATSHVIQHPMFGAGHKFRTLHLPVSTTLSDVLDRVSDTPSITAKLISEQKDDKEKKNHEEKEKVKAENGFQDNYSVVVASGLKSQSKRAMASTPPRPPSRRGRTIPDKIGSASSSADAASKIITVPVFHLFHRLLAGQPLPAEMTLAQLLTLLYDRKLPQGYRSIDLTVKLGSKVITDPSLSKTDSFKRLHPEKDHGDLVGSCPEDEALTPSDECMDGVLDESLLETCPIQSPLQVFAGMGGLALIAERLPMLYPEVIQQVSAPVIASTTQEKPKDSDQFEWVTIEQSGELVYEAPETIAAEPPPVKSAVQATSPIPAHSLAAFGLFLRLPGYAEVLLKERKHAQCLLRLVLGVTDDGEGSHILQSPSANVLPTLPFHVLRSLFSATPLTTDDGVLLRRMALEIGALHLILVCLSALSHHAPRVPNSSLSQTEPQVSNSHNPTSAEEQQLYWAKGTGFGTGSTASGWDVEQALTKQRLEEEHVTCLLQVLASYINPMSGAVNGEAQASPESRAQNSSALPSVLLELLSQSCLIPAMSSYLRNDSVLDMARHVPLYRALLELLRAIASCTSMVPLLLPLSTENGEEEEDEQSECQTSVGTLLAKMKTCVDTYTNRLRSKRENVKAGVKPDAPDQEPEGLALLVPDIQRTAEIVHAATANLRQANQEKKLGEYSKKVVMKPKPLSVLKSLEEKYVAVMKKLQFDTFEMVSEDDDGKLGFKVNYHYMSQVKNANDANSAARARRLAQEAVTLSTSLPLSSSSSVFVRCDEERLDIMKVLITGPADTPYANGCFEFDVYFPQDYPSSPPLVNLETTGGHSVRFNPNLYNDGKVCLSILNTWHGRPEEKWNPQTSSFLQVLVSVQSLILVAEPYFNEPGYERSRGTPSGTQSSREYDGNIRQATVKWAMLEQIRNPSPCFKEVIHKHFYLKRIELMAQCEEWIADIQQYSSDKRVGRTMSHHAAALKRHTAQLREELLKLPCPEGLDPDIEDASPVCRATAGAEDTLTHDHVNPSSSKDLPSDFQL

B1: Nrdp1, endogenous in HEK293F cells (enzyme, UniProt Q9H4P4 1-317)
chain: MGYDVTRFQGDVDEDLICPICSGVLEEPVQAPHCEHAFCNACITQWFSQQQTCPVDRSVVTVAHLRPVPRIMRNMLSKLQIACDNAVFGCSAVVRLDNLMSHLSDCEHNPKRPVTCEQGCGLEMPKDELPNHNCIKHLRSVVQQQQTRIAELEKTSAEHKHQLAEQKRDIQLLKAYMRAIRSVNPNLQNLEETIEYNEILEWVNSLQPARVTRWGGMISTPDAVLQAVIKRSLVESGCPASIVNELIENAHERSWPQGLATLETRQMNRRYYENYVAKRIPGKQAVVVMACENQHMGDDMVQEPGLVMIFAHGVEEI
B2: caspase 6, endogenous in HEK293F cells (enzyme, UniProt P55212 1-293)
chain: MSSASGLRRGHPAGGEENMTETDAFYKREMFDPAEKYKMDHRRRGIALIFNHERFFWHLTLPERRGTCADRDNLTRRFSDLGFEVKCFNDLKAEELLLKIHEVSTVSHADADCFVCVFLSHGEGNHIYAYDAKIEIQTLTGLFKGDKCHSLVGKPKIFIIQACRGNQHDVPVIPLDVVDNQTEKLDTNITEVDAASVYTLPAGADFLMCYSVAEGYYSHRETVNGSWYIQDLCEMLGKYGSSLEFTELLTLVNRKVSQRRVDFCKDPSAIGKKQVPCFASMLTKKLHFFPKSN
B3: caspase 7, endogenous in HEK293F cells (enzyme, UniProt P55210 1-303)
chain: MADDQGCIEEQGVEDSANEDSVDAKPDRSSFVPSLFSKKKKNVTMRSIKTTRDRVPTYQYNMNFEKLGKCIIINNKNFDKVTGMGVRNGTDKDAEALFKCFRSLGFDVIVYNDCSCAKMQDLLKKASEEDHTNAACFACILLSHGEENVIYGKDGVTPIKDLTAHFRGDRCKTLLEKPKLFFIQACRGTELDDGIQADSGPINDTDANPRYKIPVEADFLFAYSTVPGYYSWRSPGRGSWFVQALCSILEEHGKDLEIMQILTRVNDRVARHFESQSDDPHFHEKKQIPCVVSMLTKELYFSQ

Each binder was assayed against 3×FLAG-tagged full-length mouse BIRC6 (mouse, UniProt O88738 1-4882) (assay: affinity purification with mass spectrometry).
With B1 the binding was “binds”. For B2, the binding was “binds”. For B3, the binding was “binds”.
